Laboratory results as given in patent US10358426B2, “Fungicidal substituted 2-[2-halogenalkyl-4-(phenoxy)-phenyl]-1-[1,2,4]triazol-1-yl-ethanol compounds” (BASF Agro B.V., priority 2011, dated 2019).
Read-outs that look alike come from different tables or passages of the source. Some entries share one result that the patent states for a list of compounds.

What was measured:
Botrytis cinerea = test: Preventative control of grey mold on leaves of green pepper (Botrci P1), greenhouse; type: in vivo; conditions: untreated plants 90% infected
Phakopsora pachyrhizi = type: in vivo
Puccinia recondita = test: Preventative control of brown rust on wheat (Puccrt P1), greenhouse; type: in vivo
Septoria tritici = test: Preventative control of leaf blotch on wheat, inoculation next day (Septtr P1), greenhouse; type: in vivo
Alternaria solani = test: Preventative fungicidal control of early blight on tomatoes (Alteso P1), greenhouse; conditions: untreated plants 90% infected
[1] = 300 ppm, Phakpa P1, untreated plants 80% infected
[2] = 300 ppm, Puccrt P1, untreated plants 80% infected
[3] = 300 ppm, Septtr P1, untreated plants 80% infected
[4] = 150 ppm, soy bean, untreated plants 90% infected
[5] = 150 ppm, wheat, untreated plants 90% infected

SMILES	infection (% diseased leaf area) (Botrytis cinerea; 300 ppm, Botrci P1)	infection (% diseased leaf area) (Phakopsora pachyrhizi; [1])	infection (% diseased leaf area) (Puccinia recondita; [2])	infection (% diseased leaf area) (Septoria tritici; [3])	infection (% diseased leaf area) (Alternaria solani; 300 ppm, Alteso P1)	infection (% diseased leaf area) (Botrytis cinerea; 150 ppm, green pepper)	infection (% diseased leaf area) (Phakopsora pachyrhizi; [4])	infection (% diseased leaf area) (Puccinia recondita; [5])	infection (% diseased leaf area) (Septoria tritici; [5])	infection (% diseased leaf area) (Alternaria solani; 150 ppm, tomato)
CCC(Cn1cncn1)(OC)c1ccc(Oc2ccc(Cl)cc2)cc1C(F)(F)F (stereo not drawn) [compound I-9, 1-[2-[4-(4-chlorophenoxy)-2-(trifluoromethyl)phenyl]-2-methoxy-butyl]-1,2,4-triazole]	less than or equal to 10%	less than or equal to 1%	less than or equal to 10%	less than or equal to 7%	–	–	–	–	–	–
COC(Cn1cncn1)(c1ccc(Oc2ccc(Cl)cc2)cc1C(F)(F)F)C(C)C (stereo not drawn) [compound I-11, 1-[2-[4-(4-chlorophenoxy)-2-(trifluoromethyl)phenyl]-2-methoxy-3-methyl-butyl]-1,2,4-triazole]	less than or equal to 10%	–	less than or equal to 10%	less than or equal to 7%	–	–	–	–	–	–
C=CCOC(C)(Cn1cncn1)c1ccc(Oc2ccc(Cl)cc2)cc1C(F)(F)F (stereo not drawn) [compound I-18, 1-[2-allyloxy-2-[4-(4-chlorophenoxy)-2-(trifluoromethyl)-phenyl]propyl]-1,2,4-triazole]	less than or equal to 10%	less than or equal to 1%	less than or equal to 10%	less than or equal to 7%	less than or equal to 10%	–	–	–	–	–
CCC(O)(Cn1cncn1)c1ccc(Oc2ccc(Cl)cc2)cc1C(F)(F)F (stereo not drawn) [compound I-3, 2-[4-(4-chloro-phenoxy)-2-trifluoromethyl-phenyl]-1[1,2,4]triazol-1-yl-butan-2-ol]	–	–	–	–	–	less than or equal to 15%	less than or equal to 15%	less than or equal to 15%	less than or equal to 15%	–
CC(O)(Cn1cncn1)c1ccc(Oc2ccc(Cl)cc2)cc1C(F)(F)F (stereo not drawn) [compound I-2, 2-[4-(4-chloro-phenoxy)-2-trifluoromethyl-phenyl]-1-[1,2,4]triazol-1-yl-propan-2-ol]	–	–	–	–	–	less than or equal to 15%	less than or equal to 15%	less than or equal to 15%	less than or equal to 15%	less than or equal to 15%
